{
  "source": "paper PMC10163288",
  "binders": {"B1": {"name": "il10ra_site1_sap_16_mot_HHH_b1_05704_af2_000000048_0001_1_18_H_._HHH_b1_04513_0001_0000400028_0000002_0_0001_af2pred_dldesign_0_af2pred (protein)", "chain": "SSSSDPVQAAQDYYLEALELAKEKGNKDLFDATYRALMHLAEQSKDAETLARAEELRRLASSSSS"}, "B2": {"name": "il10ra_site1_normal_mot_HHH_b1_08697_af2_000000298_0001_1_18_H_._HHH_b1_04234_0001_0000200008_0000001_1 (protein)", "chain": "SSSSSIEERALRFWERLLKQVLEKGDEEQARSAARALRVLAEIVGDEEAKEYVEEVEKELSSSSS"}, "B3": {"name": "il10ra_site1_normal_mot_HHH_b2_08186_000000021_0001_43_56_H_._HHH_b1_06709_af2_0001_0000300023_0000001_0 (protein)", "chain": "SSSSTEEEIEKLLEQLEEAIEEGDRELISELALRILRLIYELGDEELLQRLWKLLKEAAKSSSSS"}, "B4": {"name": "il10ra_site1_normal_mot_HHH_b1_05672_af2_000000246_0001_1_19_H_._HHH_b1_03268_0001_0000300041_0000002_0_af2pred_0001 (protein)", "chain": "SSSSSEERVVELIAEAIRFAQNGNPEEARELLEEAKEIAEELNDEELKRAIEIAERFVRNISSSS"}, "B5": {"name": "il10ra_site1_normal_mot_HHH_b2_06054_000000214_0001_39_53_H_._HHH_b1_06319_0001_0000300025_0000001_0 (protein)", "chain": "SSSSSEEREEVEELFEEAEELLKEGDSRRVAELIRRMAELARKGDDPEAVELVLKISHKLFSSSS"}, "B6": {"name": "il10ra_site1_sap_22_mot_HHH_b1_05326_000000242_0001_1_20_H_._HHH_b1_03085_af2_0001_0000400036_0000001_0_0001 (protein)", "chain": "SSSSSEEEISQLLYEALRLAINGNPEEAERVVQEALELAEELGDEELEEYARILLYFIRNSSSSS"}, "B7": {"name": "il10ra_site1_sap_10_mot_21555af6df39fbf105a98f94538c59b3_0001_af2_000000275_0001_17_30_H_._HHH_b2_01902_0001_0000400011_0000002_0_0001 (protein)", "chain": "SSSSSNEEAVKRMLRAAKHLDDPEYVRMALRFAEWLAKVANNPELEKLVEEVKEELEEKSSSSSS"}, "B8": {"name": "il10ra_site1_sap_23_mot_39a7b8d0c4c3fc04bafbda6ce6101d3a_0001_1_af2_000000014_0001_34_48_H_._f92699a6f451d299c9dcfce864df6914_0001_0001_0000500018_0000002_0_000 … (protein)", "chain": "SSSSSNVRELAVQASRLANEAGDPEAARRVLEIRIRYVQGKLSDEEARELIEEIIEELLSSSSSS"}, "B9": {"name": "il10ra_site1_normal_mot_1cde5897893f3d1588f92be3b001cdf2_0001_af2_000000130_0001_54_65_H_._HHH_b1_04024_af2_0001_0000300003_0000001_0_af2pred_0001 (protein)", "chain": "SSSSSEEERLERLEEELKKLEEEGDEEEAIRLLRRVVKLAAELNDDEILKRAAEIAKRLFSSSSS"}, "B10": {"name": "il10ra_site1_sap_22_mot_HHH_b1_02999_af2_000000239_0001_42_56_H_._d98b4791b6225abad9199bf72535a804_0001_0001_0000500023_0000001_0_0001 (protein)", "chain": "SSSSSEAREEAWRIIREILEALQRNDEELLKELLEELEELVRESGDPIFRFSLELLEKELSSSSS"}, "B11": {"name": "il10ra_site1_normal_mot_HHH_b2_01729_af2_000000109_0001_43_56_H_._HHH_b1_02898_af2_0001_0000800014_0000001_0_af2pred_0001 (protein)", "chain": "SSSSDEVEEIEKKLKELYEEGDVEEFAKLLRELFELAEELNDPELRELFERAAELAAELLSSSSS"}, "B12": {"name": "il10ra_site1_normal_mot_HHH_b1_05083_af2_000000148_0001_42_57_H_._HHH_b1_02547_af2_0001_0000100005_0000002_0_af2pred_0001 (protein)", "chain": "SSSSSEERRELLRLLRELAKLASEGDEEEVKELTREVEELAKELGDPHIAFIARAILKRISSSSS"}, "B13": {"name": "il10ra_site1_sap_25_mot_HHH_b2_08004_000000101_0001_1_17_H_._HHH_b1_08451_af2_0001_0000100003_0000001_0_0001 (protein)", "chain": "SLKELLEELTEEEGDPSRAVALVLAELMRRGIPPEEALRLVEEAAEALGDPQLRLVVRAALRLRN"}, "B14": {"name": "il10ra_site1_normal_mot_HHH_b1_06994_000000193_0001_40_55_H_._HHH_b2_05934_0001_0000100003_0000001_0 (protein)", "chain": "SSSSDQEEELARASVRLVEQALELNNEELFRRMLRAAIRAARLHGDEEVLERLEEILRELSSSSS"}, "B15": {"name": "il10ra_site1_sap_13_mot_HHH_b1_06348_000000162_0001_1_15_H_._HHH_b1_03219_0001_0000100010_0000001_0_0001_af2pred_0001 (protein)", "chain": "SSSSSDDEERLRLAIRFIRFLLEQGDKEAAERLIRAAQDIARRLGNEEIEEELEELEQLLSSSSS"}, "B16": {"name": "il10ra_site1_sap_25_mot_370675f9295878e0bd733637505c2f16_0001_1_af2_000000080_0001_18_35_H_._e6a9f0e24292654465a3c3805779fe2a_0001_1_0001_0000100003_0000001_0_0 … (protein)", "chain": "SSSSTLEFSVEFNLRVLEHLLELGDPERARHIVEAILKFVERARNEELLERLQKVEEEINSSSSS"}, "B17": {"name": "il10ra_site1_normal_mot_8756ee2cf497b5429c717dfc0c0bcfd6_0001_000000186_0001_1_13_H_._HHH_b2_02266_af2_0001_0000100001_0000003_0 (protein)", "chain": "SSSSSEEAHEAIRLLRKAAELHHEGNPEEAEEVVEKAEKLAEEANNDVLKHALKYLKRRLSSSSS"}, "B18": {"name": "il10ra_site1_sap_17_mot_HHH_b1_07527_000000076_0001_1_15_H_._HHH_b1_05500_af2_0001_0000600037_0000002_0_0001_af2pred_0001 (protein)", "chain": "SSSSDEEEVEEEVKRLLEEAKRISDPERRAEVLTRAFSLANRLNDDELKKLVKEVAKELTSSSSS"}},
  "note": "Some of the results follow.",
  "data": [
    {"target": "il10ra, Q13651", "test": "yeast display titration", "values": [
      {"binder": "B1", "apparent Kd": "inactive: no binding seen"},
      {"binder": "B2", "apparent Kd": "inactive: no binding seen"},
      {"binder": "B3", "apparent Kd": "inactive: no binding seen"},
      {"binder": "B4", "apparent Kd": "inactive: no binding seen"},
      {"binder": "B5", "apparent Kd": "inactive: no binding seen"},
      {"binder": "B6", "apparent Kd": "inactive: no binding seen"},
      {"binder": "B7", "apparent Kd": "inactive: no binding seen"},
      {"binder": "B8", "apparent Kd": "inactive: no binding seen"},
      {"binder": "B9", "apparent Kd": "inactive: no binding seen"},
      {"binder": "B10", "apparent Kd": "inactive: no binding seen"},
      {"binder": "B11", "apparent Kd": "inactive: no binding seen"},
      {"binder": "B12", "apparent Kd": "inactive: no binding seen"},
      {"binder": "B13", "apparent Kd": "inactive: no binding seen"},
      {"binder": "B14", "apparent Kd": "inactive: no binding seen"},
      {"binder": "B15", "apparent Kd": "inactive: no binding seen"},
      {"binder": "B16", "apparent Kd": "inactive: no binding seen"},
      {"binder": "B17", "apparent Kd": "inactive: no binding seen"},
      {"binder": "B18", "apparent Kd": "inactive: no binding seen"}
    ]}
  ]
}
